Structures can show the parent of a compound that is named as a salt. The list shows a part of the results. Cut-off read from the data, not from the text of the source: active = 1.25 or more and inactive = the rest. Most values come without repeats; read them as rough.
Each compound was assayed on Kcc2-LUC knock-in mouse primary cortical neurons (Kcc2 promoter reporter) (assay: Kcc2 promoter-driven luciferase activity relative to vehicle control (fold of vehicle (ratio)); higher = stronger Kcc2 promoter activation (Kcc2 expression enhancer)). Settings: 100 nM; 48 h.
With `C=C1CC(COc2cc(=O)oc3ccccc23)(c2ccccc2)OC1=O` (centres undefined) the “Kcc2 promoter-driven luciferase activity” value was inactive: 0.97.
In the case of `CCCCCCCCCCCCCCCCCCOCC(O)CO` (centres undefined) [Batilol], the “Kcc2 promoter-driven luciferase activity” value is reported as active: 1.44.
`Cc1c2ccncc2c(C)c2c1sc1ccccc12` was tested, and the “Kcc2 promoter-driven luciferase activity” value was inactive: 0.29.
With `COc1ccc2[nH]c3c(C)c4ccncc4c(C)c3c2c1` [9-methoxyellipticine] the “Kcc2 promoter-driven luciferase activity” value was inactive: 1.13.
With `C/C(=N\NC(=S)N(C)C)c1ccccn1.[Cu][Br]` [Copper,N-dimethyl-hydrazinecarbothioamidato-N,N,S]-] the “Kcc2 promoter-driven luciferase activity” value was inactive: 1.07.
With `CC(C)(C)CC(C)(C)NCC(O)COc1ccc(C(C)(C)c2ccc(OCC(O)CNC(C)(C)CC(C)(C)C)cc2)cc1` (centres undefined) the “Kcc2 promoter-driven luciferase activity” value was inactive: 1.16.
`COc1ccc(CCN(C)CCCC(C#N)(c2ccc(OC)c(OC)c2)C(C)C)cc1OC` (centres undefined) [Verapamil hydrochloride] was tested, and the “Kcc2 promoter-driven luciferase activity” value was active: 1.25.
With `CC[C@H]1NC(=O)[C@@H](NC(=O)c2ncccc2O)[C@@H](C)OC(=O)[C@H](c2ccccc2)NC(=O)[C@@H]2CC(=O)CCN2C(=O)[C@H](Cc2ccccc2)N(C)C(=O)[C@@H]2CCCN2C1=O` [Virginiamycin S1] the “Kcc2 promoter-driven luciferase activity” value was inactive: 0.91.
`CC[C@H](C)[C@@H](N)C1=N[C@@H](C(=O)N[C@H](CC(C)C)C(=O)N[C@@H](CCC(=O)O)C(=O)N[C@@H](C(=O)N[C@@H]2CCCCNC(=O)[C@@H](CC(N)=O)NC(=O)[C@H](CC(=O)O)NC(=O)[C@@H](Cc3c[nH]cn3)NC(=O)[C@H](Cc3ccccc3)NC(=O)[C@@H]([C@@H](C)CC)NC(=O)[C@H](CCCN)NC2=O)[C@@H](C)CC)CS1` [Bacitracin A] was tested, and the “Kcc2 promoter-driven luciferase activity” value was inactive: 0.74.

From the supplement of paper PMC8551327
